Test results taken from patent US6855815 (Amgen, dated 2005).
Results are given in words; binding and its absence hold for the method and conditions named. Some binding calls cover weakened binding; strength is not graded here.

The chains behind the UniProt entries cited, without tags or fusion partners. Where a name states a change or a piece, a line headed by the entry shows the natural chain unless it says otherwise.
UniProt Q13489: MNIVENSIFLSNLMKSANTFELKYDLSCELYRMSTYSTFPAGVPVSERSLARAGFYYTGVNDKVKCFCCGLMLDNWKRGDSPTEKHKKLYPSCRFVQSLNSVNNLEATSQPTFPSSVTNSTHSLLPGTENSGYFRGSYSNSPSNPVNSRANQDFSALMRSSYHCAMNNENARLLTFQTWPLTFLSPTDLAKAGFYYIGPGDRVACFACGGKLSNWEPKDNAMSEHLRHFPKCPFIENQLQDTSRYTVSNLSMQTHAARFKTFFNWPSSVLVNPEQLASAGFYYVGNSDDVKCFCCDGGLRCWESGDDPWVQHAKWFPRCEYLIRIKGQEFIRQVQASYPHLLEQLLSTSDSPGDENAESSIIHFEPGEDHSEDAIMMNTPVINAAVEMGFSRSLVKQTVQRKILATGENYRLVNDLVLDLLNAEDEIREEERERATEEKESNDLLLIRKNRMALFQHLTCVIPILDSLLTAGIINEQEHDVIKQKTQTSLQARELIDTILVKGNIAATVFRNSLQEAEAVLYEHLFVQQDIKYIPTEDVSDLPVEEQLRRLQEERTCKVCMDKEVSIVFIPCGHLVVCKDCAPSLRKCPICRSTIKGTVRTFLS
UniProt Q13490: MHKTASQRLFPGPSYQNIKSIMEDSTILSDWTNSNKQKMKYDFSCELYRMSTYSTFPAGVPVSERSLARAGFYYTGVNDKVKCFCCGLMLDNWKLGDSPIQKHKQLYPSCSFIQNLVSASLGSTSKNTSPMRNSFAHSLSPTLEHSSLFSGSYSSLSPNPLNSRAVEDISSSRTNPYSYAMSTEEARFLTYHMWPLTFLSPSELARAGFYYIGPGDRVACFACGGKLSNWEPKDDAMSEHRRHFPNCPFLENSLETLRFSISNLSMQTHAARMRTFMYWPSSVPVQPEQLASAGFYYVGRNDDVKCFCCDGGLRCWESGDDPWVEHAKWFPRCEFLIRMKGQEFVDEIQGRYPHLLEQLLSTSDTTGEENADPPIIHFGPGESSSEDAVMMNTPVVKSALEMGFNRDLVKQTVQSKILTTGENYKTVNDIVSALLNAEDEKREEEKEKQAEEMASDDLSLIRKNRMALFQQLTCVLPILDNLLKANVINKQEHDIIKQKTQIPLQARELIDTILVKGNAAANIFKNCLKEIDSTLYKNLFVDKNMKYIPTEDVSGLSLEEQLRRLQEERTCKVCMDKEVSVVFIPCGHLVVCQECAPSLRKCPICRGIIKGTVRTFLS

What was measured:
TRAF1 [1] = target: T1, TRAF1 (UniProt Q13077); assay: yeast two-hybrid, deletion mutant
T1 sequence (looked up): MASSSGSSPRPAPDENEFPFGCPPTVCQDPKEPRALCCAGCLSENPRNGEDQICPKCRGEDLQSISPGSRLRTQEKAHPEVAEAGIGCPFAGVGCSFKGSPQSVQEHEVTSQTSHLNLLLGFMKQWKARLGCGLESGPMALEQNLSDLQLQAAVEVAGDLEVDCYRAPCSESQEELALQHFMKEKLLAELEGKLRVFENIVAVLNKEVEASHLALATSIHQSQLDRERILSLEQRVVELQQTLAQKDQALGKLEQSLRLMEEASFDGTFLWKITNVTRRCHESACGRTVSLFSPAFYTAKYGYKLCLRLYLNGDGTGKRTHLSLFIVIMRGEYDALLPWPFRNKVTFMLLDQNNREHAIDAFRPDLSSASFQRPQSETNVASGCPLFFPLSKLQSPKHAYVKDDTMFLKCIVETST

TRAF1 [2] = target: T1, TRAF1; assay: yeast two-hybrid

binding (TRAF1 [1])	binding (TRAF1 [2])	Substance
binds		N-terminal half of c-IAP2 containing the three BIR motifs (amino acids 1-396 of c-IAP2) (from UniProt Q13489 1-396)
	binds	human cellular inhibitor of apoptosis protein 2 (c-IAP2) (from UniProt Q13489 1-604)
binds		N-terminal half of c-IAP1 containing the three BIR motifs (amino acids 1-336 of c-IAP1) (from UniProt Q13490 1-336)
